Laboratory results taken from publication PMC11249646 (ACS Pharmacology & Translational Science, 2024).

Experiment: peptide made by a vendor
Settings: whole synthesis

In the case of acetyl-LVLAMWKVGFFKRNRK-FITC, the “purity (crude or final not stated)” value is reported as 95.83%.
For acetyl-RKLFVKVMFWRLNGAK-FITC, the “purity (crude or final not stated)” value was 95.37%.
